According to article PMC6971923:
No constants are given. Whether binding was seen depends on the method and setting. In cells and extracts the contact can be indirect. These calls come from enrichment with a bait or labelling near it, and not all partners need be listed.

Molecular target: C-terminal GFP-tagged version of full-length Dg (dystroglycan) (Drosophila)
Assay: affinity purification with mass spectrometry; Dg::GFP captured on GFP-Trap beads from whole lysates of 1-week-old flies (Mhc-Gal4/UAS-Dg::GFP) in RIPA buffer, overnight at 4 °C, six washes; control Mhc-Gal4/+; three biological replicates; hits: significant ≥ 2-fold increase over control

binding | Binder
binds | Wings up A (WupA) (protein, UniProt P36188 1-269) MADDEKKAAAPAAAPAAAAKPAAPAAAPAANGKAAPAANGKAAPAAAAAPAGPPKDPNDPKVKAEEAKKAKQAEIERKRAEVRKRMEEASKAKKAKKGFMTPERKKKLRLLLRKKAAEELKKEQERKAAERRRIIEERCGSPRNLSDASEGELQEICEEYYERMYICEGQKWDLEYEVRKKDWEINDLNAQVNDLRGKFVKPALKKVSKYENKFAKLQKKAAEFNFRNQLKVVKKKEFTLEEEEKEKKPDWSKGKPGDAKVKEEVEAEA
binds | gelsonin (protein, UniProt Q07171 29-798) GTLNARPAFPVQSGEIQPSGQNSKQAARRVMHPSFANAGRTPGLEIWRIENFEPVIYPKTNYGKFYTGDSFIVLNTIENKKDKKLSWDVHFWLGLETSTDEAGAAAILTVQLDDLLNGGPVQHREVQDHESQLFLSYFKNGIRYEQGGVGTGFKHVETNAQGETRLFQVKGKRNVRVRQVNLSVSSMNTGDCFILDAGSDIYVYVGSQAKRVEKLKAISAANQIRDQDHNGRARVQIVDDFSTDADKQHFFDVLGSGSADQVPDESTADEDSAFERTDAAAVSLYKVSDASGKLKVDIIGQKPLTQAMLDTRECFILDTGSGIFVWVGKGATQKEKTDAMAKAQEFLRTKKYPAWTQIHRIVEGSESAPFKQYFDTWRDAGMSHSRLIRSALGIGSDELLNDDEIDSVVTQLKKSGGRAFGFMPDHGQNVIETITQYVAKPGSDEIVVSTVPFDEKLPLLGFASYVLTYNYEANNGDTGSLTYVWHGVKASAAARKRAFEEGLVGSKDGLLVQTNQGHEPRHFYKIFKGKLLTSFTALPVTAQLFRIRGTVESDVHASEVAADSSSLASSDAFVLHSGKSHKIYIWNGLGASAFEKQAAVDRFSDYWDDVELEQVEEGAEPDEFWEELNGEGQYDRSLGDDGAPLLESRLFHCHLSSGGFLKVEEVAQYEQEDLDSDDIMLLDAGDEIYLWVGYGVSEEENGKLLDTAKLYFNLEPTARSFDTVSIIRVPQGKEPRVFKRMFPNWDDNYWQNQPSYEDMKQLVIDANNEV
binds | Hts/Add (Hu li tai shao/Adducin) (protein, UniProt Q02645 1-1156) MTEVEQPPQNGIDPTAGEDDDNSKARPADIEQDMREMERRKRVEAIMGSKLFREELERIVDSARDGGAGASGILQQLSDIVGVPVSRVGSVFKSSNCMVPINDIRGVESMGYAKGEKILRCKLAATFRLLDLYGWTQGLGAQITARLKVDQEYFLVNPYGLLYHEITASALNKVDMQGQIVEQGTTNFGGNKSHFVLHSVVHAARPDIRCAIYIGCSPVVAISSLKTGLLPLTKDACVLGEITTHAYTGLFDEEERNRLVRSLGPNSKVILLTNHGALCCGETIEEAFFAACHIVQACETQLKLLPVGLDNLVLIPEESRKAIYEQSRRPPEDLEKKFAAVAAAEDGAATAEKDAAEAVPKVGSPPKWRVGGAEFEALMRMLDNAGYRTGYIYRHPLIKSDPPKPKNDVELPPAVSSLGYLLEEEELFRQGIWKKGDIRKGGDRSRWLNSPNVYQKVEVLETGTPDPKKITKWVAEGSPTHSTPVRIEDPLQFVPAGTNPREFKRVQQLIKDNRRADKISAGPQSHILEGVTWDEASRLKDATVSQAGDHVVMMGAASKGIIQRGFQHNATVYKAPYAKNPFDNVTDDELNEYKRTVERKKKSVHGEYTDTDFSESEAVLQAGTKKYPQSEPETEHQVIEIQTQQAPVPRQAEVVLSDALVSQLAQKYAFLYSPGQYMYACMKMAPLMHKVYVIHKVEPVSKHNYPPVNDGNMSIHHNESGAGFMAQESSVISSTPVRNALASVSLPEERNHSILGLSSTPYRTISHFGFNCPLITSPTILLHPEHRSIWQRVAEQREKVVSFIDLTTLSLDNRKLLNVVTSTHPTQCQSQSQSFISEKHIQLEVTPPKRKQRVYSATISSGLDDSLDELDSLMSGLAINMPRSREQDSGLYRSYTFLPSNHALPKDTDANNRDQTDRERPEAEQEESFHCAGDSGIGDSTGRRPRLATTSNDSSIQEAEAYTQGKHVKLTLSSSPTPTATQSPATIEILINVSLRNAECVQTVQTHEQEFRAKLERVIDEEIHYISQQLAFKQRQAELHEQQTTSRAPIATPSFTTMHPPAPASSSSMVHRSNSAPELCHTYSYVAVGDLSTKQDQASPQLPAEGEPLNDILSSLEKELERLLNSVVTAHMLHNKAIIHECRARFSQLADGIVSS
binds | Nrv1 (Nervana1), β-subunit of the Na+, K+ ATPase (protein, UniProt Q24046 1-309) MSKNNGKGAKGEFEFPQPAKKQTFSEMIYNPQEGTFFGRTGKSWSQLLLFYTIFYIVLAALFTICMQGLLSTISDTEPKWKLQDSLIGTNPGLGFRPLSEQTERGSVIAFDGKKPAESDYWIELIDDFLRDYNHTEGRDMKHCGFGQVLEPTDVCVVNTDLFGGCSKANNYGYKTNQPCIFLKLNKIFGWIPEVYDKEEKDMPDDLKKVINETKTEERQQVWVSCNGHLGKDKENFQNIRYFPSQGFPSYYYPFLNQPGYLSPLVAVQFNSPPKGQMLDVECRAWAKNIQYSGSVRDRKGSVTFQILLD
binds | Yorkie (Yki) (protein, UniProt Q45VV3 1-395) MLTTMSASSNTNSLIEKEIDDEDMLSPIKSNNLVVRVNQDTDDNLQALFDSVLNPGDAKRPLQLPLRMRKLPNSFFTPPAPSHSRANSADSTYDAGSQSSINIGNKASIVQQPDGQSPIAAIPQLQIQPSPQHSRLAIHHSRARSSPASLQQNYNVRARSDAAAANNPNANPSSQQQPAGPTFPENSAQEFPSGAPASSAIDLDAMNTCMSQDIPMSMQTVHKKQRSYDVISPIQLNRQLGALPPGWEQAKTNDGQIYYLNHTTKSTQWEDPRIQYRQQQQILMAERIKQNDVLQTTKQTTTSTIANNLGPLPDGWEQAVTESGDLYFINHIDRTTSWNDPRMQSGLSVLDCPDNLVSSLQIEDNLCSNLFNDAQAIVNPPSSHKPDDLEWYKIN
binds | myosin alkali light chain (protein, UniProt P06742 1-155) MADVPKREVENVEFVFEVMGSPGEGIDAVDLGDALRALNLNPTLALIEKLGGTKKRNEKKIKLDEFLPIYSQVKKEKEQGCYEDFIECLKLYDKEENGTMLLAELQHALLALGESLDDEQVETLFADCMDPEDDEGFIPYSQFVQRLMSDPVVFD
binds | spaghetti squash (protein, UniProt P40423 1-174) MSSRKTAGRRATTKKRAQRATSNVFAMFDQAQIAEFKEAFNMIDQNRDGFVEKEDLHDMLASLGKNPTDDYLDGMMNEAPGPINFTMFLTLFGERLQGTDPEDVIKNAFGCFDEENMGVLPEDRLRELLTTMGDRFTDEDVDEMYREAPIKNGLFDYLEFTRILKHGAKDKDEQ
binds | Kibra (Kbr), Drosophila (protein, UniProt Q9VFG8 1-1288) MPNLQQTASQSQHHLHPHHLRPQQQQQQHHHHHQQQQQQQHTHHQQQQQHHSDFPLPDGWDIAKDFDGKTYYIDHINKKTTWLDPRDCYTKPQTFEDCVGDELPMGWEESYDPNIGPYYINHLAQSTQLEDPRQEWKTVQEQMLSDYLSAAQDQLENKREMFDVKQQRLLWAQEEYNHLKLAASRSSLCSSSSSMSRHDPELLRADLMLARERVHQLKQELTHITNDISYTERGMNTLYSVGEKINARENGCYDIAEVHAIREEMLKVHKSLVSGEKVREELMRSLVQIKNELGRQQISEENSDLASPFDRVCVASQTDLCGSSGENLNGGARFAEMAKTKWQYAEWRKHIKKLQQQLADHVERIEPGQLESDKDRILLIQEKEKLLNDLNSISLKSRSEEEKRVIHQTRHKLEEDLKEAYEANNTCVANRLRFHEEKQLLLDKLQEALKSTKLLEERLKSFSSESTFSISSGSSLGSLSTASSKSALSFTDIYIDPFAVDSPIDVVDLRRRSQRLFQQHQQQRLHPVHPVLQQQQSAEVTLSPRSSLSMETPPASPMKYNAGADQTPQALKEEPTYANALPAPPAYTAPPPVPISGVRARPYDLDSTVLDCMMLEAKLQKLNMGTPLNLAVAPLSPISEKPSLLDLPQEMLSRSSSTSNTRSVSAAVSNESVAGDSGVFEASRAHLPRKELAQVQIGLKYLKQEGVLVVSLERANNLLALWTASADNSQVYLRAALLPNSLTSIRTKALGDFQKPVFNDTFAVPITLDKLLTKSLQVTVVTMTGQKEEIIGTVQISMAEFNPEDSTLKWYNVLSSKFIPSFESLDIPSTSAAAAAAAVAASNAPNPGNNREESSDESTITSSQTSTLTRNQAPCMELQEQMAAELLGLGPLNEPECSDDDDDDEEEELDDKQLVSDVGLMNSSSMLHAYLQNMKQEFADKETNTDRAYLPEKSRGQSQLMDDRPVKRSQTFTPSEAFSKNRYNCRLNRSDSDSAMHCGVAPHTFQRGAAERRSLRFHSKAPKSVTKLHHTHIPRTSLDLELDLQAQHSKLYFLNDQIAKLQNLKEVLQKACENKDPLVAAWAIENEEFQRLVARADPAKCPEERQLQKLLMKTAKEIHKLRKTKVPKGCPDLVSFKEKITFFTRKGLSVPELPSEFTLPEANPIEEEEEEEDENEFYNSAETAIAINTALVASSNRNKNLSEHPHRATSGAVPKIPAPVVTPAATPAATPAATPAATSAATPAATPVVSPAAQPDAKPADAPIPVASNDAEQQRFDYVVDRNYGVEV
